Assay results from PubChem BioAssay AID590 (National Center for Advancing Translational Sciences (NCATS), 2007).
Among all 59,000 compounds or so, about 6,500 (11%) were called active. The inconclusive results got no clear call from the source; some entries with a clear call stand among them for comparison. Rule as the data show it: active = max dye-equivalent concentration above about 10 nM; inconclusive = mostly about 1.1 nM to 9.6 nM; inactive = weaker than that.

assay: qHTS Assay for Spectroscopic Profiling in A350 Spectral Region; conditions: Compound autofluorescence, 340/450 nm, Alexa 350 dye-equivalents; stronger effect = higher value

Row | Structure (SMILES) | max dye-equivalent concentration
1 | Cc1nn(-c2ccccc2)c2sc(C(=O)OCC(=O)N3CCCCC3)cc12 | inactive
2 | CCN(CC)CCCN1C(=O)C(=O)/C(=C(/O)c2c(C)nc3ccccn23)C1c1ccc(C)o1 (stereo not given) | inconclusive: 1.4 nM
3 | CCC(c1nnc(SCCNCCO)n1CCN1CCOCC1)N(C)C (stereo not given) | inconclusive: 3.1 nM
4 | Nc1nnnn1/N=C/c1ccccn1 | inconclusive: 2 nM
5 | Cc1ccc(S(=O)(=O)N2CCOCC2)cc1C(=O)N1C(=O)c2cccc(N)c2C1=O | inconclusive: 6.6 nM
6 | O=C(Nc1ccc(F)cc1)c1cccnc1N1CCOCC1 | inactive
7 | N#Cc1sc2nc(-c3ccccc3)cc(-c3ccco3)c2c1N | inconclusive: 7.2 nM
8 | Cn1c(C(=O)N2CCN(C(=O)c3ccco3)CC2)cc2c(=O)n3ccccc3nc21 | active: 8700 nM
9 | O=C(c1cnn2c(C(F)(F)F)cc(-c3ccc4c(c3)OCO4)nc12)N1CCCC1 | inconclusive: 5.1 nM
10 | Cn1c(=O)c2[nH]c(CCC(=O)O)nc2n(C)c1=O | inconclusive: 5.2 nM
11 | O=C(/C=C1\NC2(CCCC2)Cc2ccccc21)N1CCOCC1 | inconclusive: 5.3 nM
12 | O=C1NC(=O)C(c2ccccc2)(c2ccccc2)N1 | inactive
13 | CC1(C)Cc2[nH]c(=O)c(C#N)cc2CS1 | active: 12 nM
14 | CC(C)n1c(=NC(=O)c2ccco2)c(C#N)cc2c(=O)n3ccccc3cc21 | active: 500 nM
15 | CCCCCCNC(=O)CCNC(=O)c1cc(OC)c(OC)c(OC)c1 | inconclusive: 1.1 nM
16 | CCOc1ccc(OCC(=O)c2c(O)c3ccccc3oc2=O)cc1 | inactive
17 | N#Cc1nc(-c2ccco2)oc1NCc1ccco1 | inconclusive: 1.7 nM
18 | COc1cccc(CC(NC(C)=O)C(=O)NC2CCN(c3nc(C)cc(C)c3C#N)CC2)c1OC (stereo not given) | active: 110 nM
19 | Cc1ccccc1C(C(=O)NCc1ccco1)N(CC1CCCO1)C(=O)Cn1nnc2ccccc21 (stereo not given) | inactive
20 | CCCC(=O)Nc1nnc(COC)s1 | inactive

2 entries from above, tab-delimited:
Row	Structure (SMILES)	max dye-equivalent concentration
5	Cc1ccc(S(=O)(=O)N2CCOCC2)cc1C(=O)N1C(=O)c2cccc(N)c2C1=O	inconclusive: 6.6 nM
11	O=C(/C=C1\NC2(CCCC2)Cc2ccccc21)N1CCOCC1	inconclusive: 5.3 nM

Next part

Row | Structure (SMILES) | max dye-equivalent concentration
21 | Cc1oc(-c2ccc(Cl)cc2)cc1-c1nn2c(-c3ccoc3C)nnc2s1 | inactive
22 | COc1ccc2cc(C(=O)N3CCOCC3)sc(=O)c2c1OC | inconclusive: 6.2 nM
23 | O=CNCCCc1nc2ccccc2n1Cc1ccccc1 | inconclusive: 5.1 nM
24 | CCCCOC(=O)C(C#N)c1nc2ccccc2nc1N1CCN(Cc2ccc3c(c2)OCO3)CC1 (stereo not given) | inconclusive: 6.4 nM
25 | c1ccc(CNc2ncnc3nc[nH]c23)cc1 | inconclusive: 5.5 nM
26 | Cc1ccc(C(=O)CSc2nnc(CNc3nc(-c4ccccc4)cs3)n2C)cc1 | inactive
27 | COc1ccc2[nH]cc(CCNc3ncncc3-c3cccnc3)c2c1 | inconclusive: 5.8 nM
28 | COc1cccc(-c2nc(N3CC(C)CC(C)C3)c3ccccc3n2)c1O (stereo not given) | inconclusive: 6.5 nM
29 | Cc1ccc(C)c(N2CCN(C(=O)C3CCN(S(=O)(=O)c4cccc5nsnc45)CC3)CC2)c1 | inconclusive: 7.6 nM
30 | CCN(CC)S(=O)(=O)c1ccc2oc(SCC3CN=C(c4ccc(OC)cc4)S3)nc2c1 (stereo not given) | inconclusive: 5.3 nM
31 | CCn1c(CNC(=O)c2ccco2)nnc1SCC(=O)Nc1cc(C(F)(F)F)ccc1Cl | inconclusive: 1.5 nM
32 | COc1nc(-c2ccc(Cl)cc2)ccc1-c1noc(-c2ccncc2)n1 | active: 69 nM
33 | O=C(NCc1ccccc1)NC1CC2CCC(C1)N2Cc1ccco1 (stereo not given) | inconclusive: 1.5 nM
34 | CS(=O)(=O)N(CC(=O)N1CCN(c2ccccc2F)CC1)c1ccc2c(c1)OCCO2 | inactive
35 | CC(C)Cc1nc(NCCN2CCOCC2)c(C#N)c2c1COC(C)(C)C2 | active: 17 nM
36 | Cc1ccc2c(c1)c1ncnc(N3CCc4ccccc4C3)c1n2C | active: 140 nM
37 | Cn1cccc1C(=O)N1CCC[C@@]2(CCN(Cc3cc(C(F)(F)F)cc(C(F)(F)F)c3)C2)C1 | inactive
38 | Cc1cc(C)c2cc(C(c3nnnn3C3CCCC3)N3CCOCC3)c(=O)[nH]c2c1 (stereo not given) | inconclusive: 7.7 nM
39 | CCCOc1ccc(CSc2nnc(CCC)n2N)cc1 | inactive
40 | COc1ccc(Cc2nnc(NC(=O)Cc3cccs3)s2)cc1OC | inactive

Row | Structure (SMILES) | max dye-equivalent concentration
41 | Brc1cccc(-c2nnco2)c1 | inconclusive: 2.3 nM
42 | O=C(COc1ccccc1)N1CCN(c2ncnc3c2cnn3-c2ccccc2)CC1 | inactive
43 | COC(=O)c1[nH]c2cccc(OC)c2c1NC(=O)CCN1CCN(c2ccccc2OC)CC1 | inconclusive: 4.3 nM
44 | CC1=CC(C)C(/C=N/n2cnnc2)C(C)C1 (stereo not given) | inactive
45 | O=C(CSc1nnc(-c2ccco2)o1)NC(=O)C1COc2ccccc2O1 (stereo not given) | inactive
46 | COc1ccc(CSCCN)cc1Cl | inactive
47 | c1cncc(-c2ccc3ncnc(N4CCNCC4)c3c2)c1 | inconclusive: 3.4 nM
48 | CC1(C)CC(=O)C=C(NCc2ccncc2)C1 | inconclusive: 7.9 nM
49 | N=c1c2c(-c3ccccc3)c(-c3ccccc3)oc2ncn1CCN1CCOCC1 | inconclusive: 8.3 nM
50 | Cc1cccc(NC(=O)c2sc(NC(=O)c3ccco3)c(C#N)c2C)c1C | inconclusive: 4 nM
51 | CCOC(=O)CCc1c(C)c2ccc(OCc3nn[nH]n3)cc2oc1=O | active: 40 nM
52 | c1ccc2c(c1)oc1c(NCCCN3CCOCC3)ncnc12 | inconclusive: 7.5 nM
53 | O=C(O)CCCCCNc1nc(=S)[nH]c2ccccc12 | active: 15000 nM
54 | CCC(C)(C)n1nnnc1C(c1cc2ccc(C)cc2[nH]c1=O)N(Cc1cccnc1)Cc1ccco1 (stereo not given) | inactive
55 | Cc1nnc(N2CCN(Cc3ccccc3)CC2)[nH]c1=O | inactive
56 | Cc1ccc(C)c(/C(O)=C2\C(=O)C(=O)N(CCCn3ccnc3)C2c2ccncc2)c1 (stereo not given) | inactive
57 | Cn1c(SCc2nc3ccccc3[nH]2)nnc1-c1ccccn1 | inconclusive: 1.2 nM
58 | Clc1cccc(Cl)c1COc1ccccn1 | inactive
59 | CCOc1ccc2[nH]c(C)c(CN3CCN(CC)CC3)c(=O)c2c1 | inconclusive: 2.4 nM
60 | Cc1ccc(C(=O)CSc2ccccn2)cc1 | inactive
